Experimental data taken from the supplement of paper PMC10849652.
The list shows a part of the results. Residues, ends and D or L forms follow the SMILES beside them. *: point of attachment. Cbz = O=C(OCc1ccccc1)*

By UniProt entry, the sequences of proteins in these tests, tags left out. Where a name states a change or a piece, a line headed by the entry shows the natural chain unless it says otherwise.
UniProt Q9P000, whole entry, looked up: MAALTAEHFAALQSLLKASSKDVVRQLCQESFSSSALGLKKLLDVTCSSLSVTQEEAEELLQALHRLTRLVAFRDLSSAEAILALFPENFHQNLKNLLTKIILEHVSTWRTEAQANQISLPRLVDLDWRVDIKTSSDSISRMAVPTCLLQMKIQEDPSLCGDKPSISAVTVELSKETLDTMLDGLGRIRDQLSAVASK
UniProt P15954, whole entry, looked up: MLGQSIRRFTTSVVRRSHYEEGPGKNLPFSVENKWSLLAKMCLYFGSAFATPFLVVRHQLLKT
UniProt Q14019: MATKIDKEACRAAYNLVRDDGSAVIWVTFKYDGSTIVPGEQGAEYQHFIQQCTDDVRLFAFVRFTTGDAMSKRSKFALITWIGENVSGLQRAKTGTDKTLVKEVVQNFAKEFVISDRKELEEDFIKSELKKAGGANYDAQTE
UniProt Q8N8Q8: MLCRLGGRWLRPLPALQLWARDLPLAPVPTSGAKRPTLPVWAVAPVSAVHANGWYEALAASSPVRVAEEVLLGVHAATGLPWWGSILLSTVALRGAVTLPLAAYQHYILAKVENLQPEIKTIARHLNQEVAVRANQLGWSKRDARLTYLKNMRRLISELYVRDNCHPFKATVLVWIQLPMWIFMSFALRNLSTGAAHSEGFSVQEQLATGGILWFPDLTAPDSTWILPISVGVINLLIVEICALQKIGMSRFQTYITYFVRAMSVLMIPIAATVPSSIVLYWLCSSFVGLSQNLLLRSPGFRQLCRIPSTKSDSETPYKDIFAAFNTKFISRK
UniProt Q92793, whole entry, looked up: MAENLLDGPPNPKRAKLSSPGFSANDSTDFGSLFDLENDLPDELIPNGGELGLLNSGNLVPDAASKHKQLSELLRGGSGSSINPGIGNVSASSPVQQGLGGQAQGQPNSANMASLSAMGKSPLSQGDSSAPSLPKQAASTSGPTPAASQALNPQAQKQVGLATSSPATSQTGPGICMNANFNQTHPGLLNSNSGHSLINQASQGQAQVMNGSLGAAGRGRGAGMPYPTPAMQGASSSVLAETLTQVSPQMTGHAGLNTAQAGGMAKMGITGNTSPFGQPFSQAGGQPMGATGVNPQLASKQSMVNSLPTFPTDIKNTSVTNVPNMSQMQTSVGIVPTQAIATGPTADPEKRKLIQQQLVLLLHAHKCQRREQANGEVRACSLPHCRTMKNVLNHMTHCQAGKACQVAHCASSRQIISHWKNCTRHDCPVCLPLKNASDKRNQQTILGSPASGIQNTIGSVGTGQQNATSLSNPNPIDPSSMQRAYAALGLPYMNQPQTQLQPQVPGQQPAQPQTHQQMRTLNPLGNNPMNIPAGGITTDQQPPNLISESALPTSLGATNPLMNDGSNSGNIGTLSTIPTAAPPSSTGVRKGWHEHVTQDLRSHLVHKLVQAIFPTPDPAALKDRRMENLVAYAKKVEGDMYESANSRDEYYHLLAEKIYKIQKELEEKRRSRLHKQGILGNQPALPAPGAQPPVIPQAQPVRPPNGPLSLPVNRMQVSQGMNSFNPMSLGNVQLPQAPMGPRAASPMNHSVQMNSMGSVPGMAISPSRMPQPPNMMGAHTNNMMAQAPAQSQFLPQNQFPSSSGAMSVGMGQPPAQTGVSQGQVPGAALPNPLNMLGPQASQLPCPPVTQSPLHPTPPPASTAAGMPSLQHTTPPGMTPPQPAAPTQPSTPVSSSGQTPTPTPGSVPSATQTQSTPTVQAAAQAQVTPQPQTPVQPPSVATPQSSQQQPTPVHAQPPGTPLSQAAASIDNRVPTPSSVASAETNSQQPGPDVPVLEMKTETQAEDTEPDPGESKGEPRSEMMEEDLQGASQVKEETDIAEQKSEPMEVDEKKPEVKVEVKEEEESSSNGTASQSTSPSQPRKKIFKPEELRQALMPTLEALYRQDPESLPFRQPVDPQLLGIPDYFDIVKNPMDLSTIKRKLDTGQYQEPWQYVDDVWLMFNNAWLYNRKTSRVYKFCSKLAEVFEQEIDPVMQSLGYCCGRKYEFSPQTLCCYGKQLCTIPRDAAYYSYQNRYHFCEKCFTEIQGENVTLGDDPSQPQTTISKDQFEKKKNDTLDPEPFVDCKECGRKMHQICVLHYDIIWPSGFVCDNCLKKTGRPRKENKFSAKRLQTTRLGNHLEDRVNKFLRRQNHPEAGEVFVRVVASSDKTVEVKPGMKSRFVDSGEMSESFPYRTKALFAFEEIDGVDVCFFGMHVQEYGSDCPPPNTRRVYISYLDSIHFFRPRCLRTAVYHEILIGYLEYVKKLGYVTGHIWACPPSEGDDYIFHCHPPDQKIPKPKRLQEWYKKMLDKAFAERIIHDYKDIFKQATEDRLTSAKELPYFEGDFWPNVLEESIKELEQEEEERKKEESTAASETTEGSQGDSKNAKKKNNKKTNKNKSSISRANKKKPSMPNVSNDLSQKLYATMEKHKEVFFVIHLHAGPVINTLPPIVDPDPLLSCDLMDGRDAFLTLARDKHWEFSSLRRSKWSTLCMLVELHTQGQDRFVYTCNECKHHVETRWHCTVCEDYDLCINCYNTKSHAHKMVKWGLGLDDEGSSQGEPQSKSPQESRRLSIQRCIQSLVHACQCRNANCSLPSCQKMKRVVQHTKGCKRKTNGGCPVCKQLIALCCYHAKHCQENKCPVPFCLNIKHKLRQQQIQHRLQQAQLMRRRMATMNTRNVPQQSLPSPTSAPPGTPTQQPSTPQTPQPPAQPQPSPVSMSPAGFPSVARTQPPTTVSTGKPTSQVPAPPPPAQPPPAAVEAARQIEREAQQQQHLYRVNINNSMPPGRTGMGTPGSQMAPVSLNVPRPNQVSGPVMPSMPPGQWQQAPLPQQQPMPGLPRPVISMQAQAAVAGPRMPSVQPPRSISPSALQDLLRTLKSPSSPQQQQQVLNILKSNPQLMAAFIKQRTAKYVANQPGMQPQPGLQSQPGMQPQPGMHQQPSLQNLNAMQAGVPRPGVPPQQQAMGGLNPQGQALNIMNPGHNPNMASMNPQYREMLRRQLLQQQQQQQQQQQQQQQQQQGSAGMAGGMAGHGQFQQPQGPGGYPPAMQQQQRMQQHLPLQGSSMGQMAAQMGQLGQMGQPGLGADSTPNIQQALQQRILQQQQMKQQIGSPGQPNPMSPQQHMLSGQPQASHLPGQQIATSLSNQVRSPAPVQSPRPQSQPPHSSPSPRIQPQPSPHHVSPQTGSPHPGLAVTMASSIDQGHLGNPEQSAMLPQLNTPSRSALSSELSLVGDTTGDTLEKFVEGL
UniProt P68400, whole entry, looked up: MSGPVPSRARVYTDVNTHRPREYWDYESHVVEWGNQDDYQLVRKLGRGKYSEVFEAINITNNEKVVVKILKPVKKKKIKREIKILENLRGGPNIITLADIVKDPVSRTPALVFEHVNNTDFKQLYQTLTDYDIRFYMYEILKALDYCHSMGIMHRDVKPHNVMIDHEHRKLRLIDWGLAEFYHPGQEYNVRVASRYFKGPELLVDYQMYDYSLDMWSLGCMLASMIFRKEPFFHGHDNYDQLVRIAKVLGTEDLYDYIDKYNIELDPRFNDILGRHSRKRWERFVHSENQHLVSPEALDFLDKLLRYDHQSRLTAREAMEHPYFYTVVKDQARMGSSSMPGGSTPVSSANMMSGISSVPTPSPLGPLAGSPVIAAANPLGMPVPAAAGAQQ
UniProt Q49B96: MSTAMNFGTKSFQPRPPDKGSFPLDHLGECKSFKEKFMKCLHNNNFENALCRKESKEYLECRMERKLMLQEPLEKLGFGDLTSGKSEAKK
UniProt Q9NQ92: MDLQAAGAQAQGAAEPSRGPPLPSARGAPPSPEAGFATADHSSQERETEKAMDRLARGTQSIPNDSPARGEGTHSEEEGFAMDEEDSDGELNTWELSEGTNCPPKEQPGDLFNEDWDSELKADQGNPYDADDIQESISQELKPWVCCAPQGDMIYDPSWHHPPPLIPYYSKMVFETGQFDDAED

Tests used:
Assay in all cases: log2 fold change, soluble protein after heating vs DMSO (PISA); higher = thermal stabilisation; K562 cells, 10 uM, 30 min; active = over 0.2 and 3.5 SD of the protein, either way, in both replicates (recomputed)
erlotinib = compound: C#Cc1cccc(Nc2ncnc3cc(OCCOC)c(OCCOC)cc23)c1 [erlotinib]
Method in brief: (§1)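 Thermal stability values are relative to control samples and come from duplicates. They are expressed as log2 fold changes. For measurement, K562 cells (2×10^6 cells/mL) received 10 μM compound for 30 min, and aliquots were heated for 3 min over 48°C-58°C, pooled, and extracted at 4°C in PBS with 0.5% NP-40. Soluble protein, the supernatant after 21,000xg for 90 min, was quantified by TMTpro 16plex LC-MS/MS with equalised channel sums.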

[1] = compound: C/C(=N\NC(=O)C1=CC(=CC=C1)S(=O)(=O)N2CCOCC2)/C3=C(C=CC(=C3)Cl)O
Method in brief: as §1

[2] = compound: C1=CC(=C(C=C1Cl)C2=NC3=NC=CN=C3C(=N2)NC4=CC=NC=C4)F
Method in brief: as §1

[3] = compound: C1=CC(=CC=C1C2=NC3=C(N2)C=C(C=C3)C(=O)N)OC4=CC=C(C=C4)Cl
Method in brief: as §1

[4] = compound: C1=CC2=C(C=CC(=C2)/C=C\3/C(=O)NC(=NCC4=CC=CS4)S3)N=C1
Method in brief: as §1

[5] = compound: C1=CC2=NC=CN=C2C=C1/C=C/3\C(=O)NC(=O)S3
Method in brief: as §1

[6] = compound: C1=CC=C(C=C1)C2=NC(=C(N2)C3=CC=NC=C3)C4=CC(=C(C=C4)Cl)O
Method in brief: as §1

[7] = compound: C1=CC=C2C(=C1)C3=NNC4=CC=CC(=C43)C2=O
Method in brief: as §1

[8] = compound: C1CCN(C1)C(=O)NC2=CC=CC(=C2)NC3=NC=C(C(=N3)NCCC4=CN=CN4)Br
Method in brief: as §1

[9] = compound: C1CN(CCC1(CC2=CC=C(C=C2)Cl)N)C3=NC=NC4=C3C=CN4
Method in brief: as §1

IRAK-1-4 Inhibitor I = compound: C1COCCN1CCN2C3=CC=CC=C3N=C2NC(=O)C4=CC(=CC=C4)[N+](=O)[O-] [IRAK-1-4 Inhibitor I]
Method in brief: as §1

ibrutinib = compound: C=CC(=O)N1CCC[C@@H](n2nc(-c3ccc(Oc4ccccc4)cc3)c3c(N)ncnc32)C1 [ibrutinib]
Method in brief: as §1

[10] = compound: CC(=O)c1cnc2ccc(-c3cc(Cl)c(O)c(Cl)c3)nc2c1N[C@H]1CC[C@H](CN(C)C)CC1
Method in brief: as §1

ralimetinib = compound: CC(C)(C)Cn1c(N)nc2ccc(-c3[nH]c(C(C)(C)C)nc3-c3ccc(F)cc3)nc21 [ralimetinib]
Method in brief: as §1

[11] = compound: CC(C)(O)CC(=O)NCCn1ccc2ncnc(Nc3ccc(Oc4cccc(C(F)(F)F)c4)c(Cl)c3)c21
Method in brief: as §1

[12] = compound: CC(C)C1=C2N=C(C=C(N2N=C1)NCC3=CC=CC=C3)NCCCCCCN
Method in brief: as §1

[13] = compound: CC(C)C[C@@H](C=O)NC(=O)[C@H](CC(C)C)NC(=O)[C@H](CC(C)C)NC(=O)OCc1ccccc1
Method in brief: as §1

pinometostat = compound: CC(C)N(C[C@H]1O[C@@H](n2cnc3c(N)ncnc32)[C@H](O)[C@@H]1O)[C@H]1C[C@@H](CCc2nc3cc(C(C)(C)C)ccc3[nH]2)C1 [pinometostat]
Method in brief: as §1

[14] = compound: CC1=C(C(CC(=O)N1)C2=CC=C(C=C2)C(F)(F)F)C(=O)NC3=C(C=C4C(=C3)C=NN4)F
Method in brief: as §1

[15] = compound: CC1=C(C2=C(C=C1)C(=O)C3=CC=CC=C3N2CCCN)C
Method in brief: as §1

Measured: log2 fold change

COMMD9 (UniProt Q9P000)
inactive: erlotinib -0.049 | [1] 0.133 | [2] 0.088 | [3] -0.057 | [4] -0.013 | [5] 0.077 | [6] 0.053 | [7] 0.09 | [8] -0.118 | [9] -0.009 | IRAK-1-4 Inhibitor I -0.137 | ibrutinib 0.009 | [10] -0.063 | ralimetinib -0.071 | [11] -0.016 | [12] -0.057 | [13] -0.004 | pinometostat 0.003 | [14] 0.052 | [15] 0.254

COX7C (UniProt P15954)
inactive: erlotinib -0.006 | [1] 0.134 | [2] 0.209 | [3] 0.154 | [4] -0.174 | [5] 0.073 | [6] 0.08 | [7] 0.27 | [8] -0.003 | [9] 0.047 | IRAK-1-4 Inhibitor I -0.013 | ibrutinib 0.057 | [10] -0.013 | ralimetinib 0.301 | [11] 0.041 | [12] 0.184 | [13] 0.074 | pinometostat 0.092 | [15] 0.009

COTL1 (UniProt Q14019)
inactive: erlotinib 0.013 | [1] 0.043 | [2] 0.033 | [3] -0.016 | [4] -0.006 | [5] 0.046 | [6] 0.009 | [7] 0.006 | [8] -0.005 | [9] 0.016 | IRAK-1-4 Inhibitor I -0.016 | ibrutinib -0.063 | [10] 0.009 | ralimetinib -0.026 | [11] 0 | [12] 0.015 | [13] -0.052 | pinometostat -0.076 | [14] -0.012 | [15] -0.025

COX18 (UniProt Q8N8Q8)
inactive: erlotinib 0.002 | [1] 0 | [2] 0.033 | [3] -0.03 | [4] 0.001 | [5] 0.021 | [6] -0.03 | [7] -0.082 | [8] 0.017 | [9] 0.031 | IRAK-1-4 Inhibitor I 0.047 | ibrutinib 0.05 | [10] -0.096 | ralimetinib -0.016 | [11] -0.006 | [12] -0.073 | [13] 0.061 | pinometostat -0.028 | [14] -0.008 | [15] 0.025

CREBBP (UniProt Q92793)
inactive: erlotinib -0.021 | [1] 0.088 | [2] 0.076 | [3] 0.029 | [4] 0.001 | [5] 0.027 | [6] -0.008 | [7] 0.016 | [8] -0.04 | [9] 0.037 | IRAK-1-4 Inhibitor I -0.007 | ibrutinib -0.011 | [10] -0.064 | ralimetinib -0.022 | [11] -0.026 | [12] 0.031 | [13] 0.023 | pinometostat 0.001 | [14] -0.013 | [15] 0.043

CSNK2A1 (UniProt P68400)
inactive: erlotinib -0.03 | [1] -0.011 | [2] 0.006 | [3] 0.024 | [4] 0.139 | [6] -0.041 | [7] 0.094 | [8] -0.003 | [9] -0.013 | IRAK-1-4 Inhibitor I 0.022 | ibrutinib 0.029 | ralimetinib -0.082 | [11] 0.006 | [12] -0.064 | [13] -0.021 | pinometostat 0.103 | [15] 0.159
active: [5] 0.296 | [10] 0.245

COX19 (UniProt Q49B96)
inactive: erlotinib -0.017 | [1] 0 | [2] 0.019 | [3] 0.033 | [4] 0.029 | [5] 0.038 | [6] -0.04 | [7] -0.02 | [8] -0.023 | [9] 0.018 | IRAK-1-4 Inhibitor I 0.015 | ibrutinib -0.043 | [10] -0.017 | ralimetinib -0.067 | [11] 0.008 | [12] -0.025 | [13] -0.006 | pinometostat -0.016 | [14] 0.009 | [15] 0.047

COPRS (UniProt Q9NQ92)
inactive: erlotinib 0.041 | [1] -0.006 | [2] 0.108 | [3] 0.045 | [4] 0.016 | [5] 0.067 | [6] -0.129 | [7] -0.003 | [8] 0.012 | [9] 0.045 | IRAK-1-4 Inhibitor I 0.049 | ibrutinib 0.032 | [10] 0.02 | ralimetinib 0.018 | [11] 0.025 | [12] 0.042 | [13] -0.037 | pinometostat -0.085 | [14] 0.035 | [15] 0.092
